# Results taken from patent US20050059588A1, “Peptides which generate antibodies resulting in lysis of pathologically adherent erythrocytes” (REGENTS OF THE UNIVERSITY OF CALIFORNIA, priority 2003, published 2005).
# The chains behind the UniProt entries cited, without tags or fusion partners. Residues count along the entry.
# UniProt P16671, residues 2-472: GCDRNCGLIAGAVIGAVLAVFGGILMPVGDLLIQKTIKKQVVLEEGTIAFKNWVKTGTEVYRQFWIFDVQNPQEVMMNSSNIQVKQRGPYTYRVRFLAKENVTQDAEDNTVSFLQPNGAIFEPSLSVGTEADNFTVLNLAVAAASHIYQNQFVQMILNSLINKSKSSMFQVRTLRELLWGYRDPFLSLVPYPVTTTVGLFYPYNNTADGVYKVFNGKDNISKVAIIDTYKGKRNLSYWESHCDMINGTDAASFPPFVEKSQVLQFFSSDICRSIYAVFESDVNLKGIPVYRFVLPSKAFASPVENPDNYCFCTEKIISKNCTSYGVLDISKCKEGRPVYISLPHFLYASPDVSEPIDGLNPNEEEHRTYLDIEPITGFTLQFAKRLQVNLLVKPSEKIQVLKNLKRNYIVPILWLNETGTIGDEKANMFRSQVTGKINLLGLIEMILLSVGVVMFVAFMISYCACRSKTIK
# These are yes or no findings as the source states them, for the method shown. Some entries that bind do so weakly or less than the wild type.
# Target: CD36 on CD36 transfected CHO cells (UniProt P16671)
# Assay: 40 ug/ml biotin labeled peptide on CD36 transfected CHO cells, Alexa-conjugated streptavidin
binder,measurement,value
YETFSKLIKIFQDH (biotin label (position not given)) [biotin labeled DBR peptide],binding,binds
